Reference: the supplement of paper PMC11451515

Tests used:
[1] = system: SEM cells; assay: AUC of viability dose-response curve (% viability x log10 dose units); higher = less sensitive; settings: 48 h
Method in brief: (§1)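 Seeding of medium-adapted leukemia cells was at 500 or 1000 cells/well in 1536-well plates, followed by 48 h at 37°C with library compounds in DMSO at 11 threefold doses from 47 μM to 0.79 nM. CellTiter-Glo One luminescence was normalised per plate to DMSO and cell-free wells and fitted as a four-parameter log-logistic function of log10 dose. Area under the curve was integrated by trapezoidal rule, with curves exceeding full viability scaled and curves failing quality control removed.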

[2] = system: NOMO1; assay: as above; settings: 48 h
Method in brief: as §1

[3] = system: P12-Ichikawa; assay: as above; settings: 48 h
Method in brief: as §1

[4] = system: SEM cells; assay: cell viability relative to DMSO control; higher = less cytotoxic; settings: 48 h
Method in brief: (§2)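 Three leukemia lines were tested: NOMO1 and SEM at 500 cells/well and P12-Ichikawa at 1000 cells/well. Each was adapted for at least four passages in each medium and seeded in 5 μl in 1536-well plates, and library compounds in DMSO were pin-dosed from 47 μM to 0.79 nM in 11 threefold steps. After 48 h at 37°C, CellTiter-Glo One luminescence was read. Viability is a percentage relative to DMSO wells on each plate, with cell-free wells as background.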

[5] = system: NOMO1; assay: as above; settings: RPMI 5 mM glucose + 10% FBS, 48 h
Method in brief: as §2

CC1=C(C=CC=C1)N2C(=O)C3=C(C=CC=C3C)\N=C2\C[N]4N=C(C5=CC(=CC=C5)O)C6=C(N)N=CN=C46
Settings	AUC of viability dose-response curve	cell viability [%]
[1], HPLM + 10% dialyzed FBS	465	–
[1], RPMI 5 mM glucose + 10% FBS	462	–
[1], RPMI 5 mM glucose + 10% dialyzed FBS	457	–
[2], HPLM + 10% dialyzed FBS	358	–
[2], RPMI 5 mM glucose + 10% FBS	333	–
[2], RPMI 5 mM glucose + 10% dialyzed FBS	371	–
[3], HPLM + 10% dialyzed FBS	402	–
[3], RPMI 5 mM glucose + 10% FBS	395	–
[3], RPMI 5 mM glucose + 10% dialyzed FBS	409	–
[5], 0.000781 µM	–	107
[5], 0.00234 µM	–	114
[5], 0.00702 µM	–	125
[5], 0.0211 µM	–	129
[5], 0.0632 µM	–	139
[5], 0.19 µM	–	124
[5], 0.569 µM	–	92.5
[5], 1.71 µM	–	54.7
[5], 5.12 µM	–	16.4
[5], 15.4 µM	–	12.9
[5], 46.1 µM	–	13.2

cell viability [%], [4]
Settings	HPLM + 10% dialyzed FBS	RPMI 5 mM glucose + 10% FBS	RPMI 5 mM glucose + 10% dialyzed FBS
0.000781 µM	100	106	118
0.00234 µM	106	115	117
0.00702 µM	102	123	138
0.0211 µM	108	118	125
0.0632 µM	119	126	122
0.19 µM	121	114	123
0.569 µM	112	105	131
1.71 µM	110	112	129
5.12 µM	105	115	110
15.4 µM	96.8	90.3	105
46.1 µM	89.4	91.1	95.7
